Assay results published in article PMC3003670.
The exact form of at least one protein or probe is not confirmed. Results from cells or extracts need not show a direct contact. For some assays here: No signal at the amounts used counts as a negative.

The chains behind the UniProt entries cited, without tags or fusion partners. Where a name states a change or a piece, a line headed by the entry shows the natural chain unless it says otherwise.
UniProt P15976: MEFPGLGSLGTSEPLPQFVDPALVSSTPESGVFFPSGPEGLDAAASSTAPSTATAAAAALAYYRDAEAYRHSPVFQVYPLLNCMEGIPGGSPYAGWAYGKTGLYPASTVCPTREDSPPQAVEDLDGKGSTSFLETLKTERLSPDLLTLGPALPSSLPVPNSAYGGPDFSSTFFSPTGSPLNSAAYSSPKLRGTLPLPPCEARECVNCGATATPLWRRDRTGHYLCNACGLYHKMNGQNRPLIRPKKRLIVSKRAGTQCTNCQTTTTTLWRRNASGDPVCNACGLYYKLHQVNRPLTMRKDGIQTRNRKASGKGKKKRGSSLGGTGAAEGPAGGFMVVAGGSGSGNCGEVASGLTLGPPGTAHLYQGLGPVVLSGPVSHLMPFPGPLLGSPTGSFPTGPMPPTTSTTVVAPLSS

How the values were obtained:
[1] = target: GATA-1 (UniProt P15976); test: competition with a labelled probe; details: K562 nuclear extract, unlabeled mutant at 50-200-fold molar excess failed to compete with labeled wt probe; LightShift chemiluminescent EMSA kit, 4 ug nuclear extract, 50 ug/ml poly(dI-dC), 6% DNA retardation gel; pH and temperature not stated; protein in an extract; label: none (unlabeled competitor)
[2] = target: GATA-1 (UniProt P15976); test: EMSA; details: K562 nuclear extract 4 ug, complex blocked by anti-GATA-1 antibody and by 50-200-fold unlabeled wt probe; LightShift chemiluminescent EMSA kit, 4 ug nuclear extract, 50 ug/ml poly(dI-dC), 6% DNA retardation gel; pH and temperature not stated; protein in an extract

Sequence	binding result [1]	binding result [2]
GCCAGAGGCCTGCTCACTGG (double strand) [-850 GATA-1 mt (ALCAM promoter)]	no binding	
GCCAGAGGCCTTATCACTGG (double strand) [-850 GATA-1 wt (ALCAM promoter)]		binds
